From PubChem BioAssay AID493014 (National Center for Advancing Translational Sciences (NCATS), 2011)
The campaign covered roughly 340,000 compounds. About 170 (0.05%) were called active. This list was built around the results that the source calls inconclusive (neither active nor inactive); the mix of calls is not that of the screen. The call rests on the fitted dose curve; in most records, active means well fitted inhibition curve with a large enough effect in the signal ratio, with a control signal flat (not every such curve was filed as active); inconclusive means small, poorly fitted or top-dose-only effect, or effect the other way, or a change in a side signal; inactive means flat fitted curve, though single readings scatter; the % refers to the signal ratio. A potency beside an inconclusive call is a rough fit, not a confirmed value.

Test: qHTS Assay to Find Inhibitors of Chronic Active B-Cell Receptor Signaling;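 on activity change, negative = inhibition: plate controls were basal doxycycline-induced cells for no effect and cells given 10 µM MG132 for full effect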
Details: ABC-DLBCL IkBa-CBG/CBR reporter, luminescence ratio (green luciferase fused to IkBa over red control in TMD8 lymphoma cells), 4 h; activity change, negative = inhibition: at 46.1 µM (top of the series)
How it was run: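 Cell line TMD8 (human ABC DLBCL), stably expressing tet-inducible CBG68-IkBa fusion and CBR; IMDM/0.5% FBS; cpd up to 46 uM; dox induction, 4 h, 37C/5% CO2; dual luminescence; green/red ratio; MG132 control.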
Potency means the concentration at half of the fitted maximal effect.

Compound	activity change, negative = inhibition	Potency
c1ccc(COc2ccc(-c3csnn3)cc2)cc1	inconclusive: 3.3%	–
COc1cc2cc(C(c3nnnn3C3CCCC3)N3CCCCC3)c(=O)[nH]c2cc1OC (stereo unspecified)	inactive: -3.49%	–
CCOC(=O)c1nnn(-c2ccc([N+](=O)[O-])cc2)c1C	inconclusive: 8.96%	–
CCC(C(=O)N1CCN(c2ccccn2)CC1)n1nc(C)n2c(cc3occc32)c1=O (stereo unspecified)	inconclusive: 0.113%	–
CN=c1scc(C)n1/N=C/c1ccc(O)cc1	–	inconclusive: 20.6 µM [falling, single point]
CN(Cc1ccccc1)S(=O)(=O)c1ccc(Cl)c(C(=O)NCc2ccc3c(c2)OCO3)c1	inconclusive: -0.428%	–
Cc1ccc(C)c(NC(=S)Nc2cccc3cnccc23)c1	inconclusive: -10.7%	–
O=c1c(Cc2c(F)cccc2Cl)c(O)ccn1C1CC1	inconclusive: 9.58%	–
C(=C\c1ccccc1)/CN1CCN(Cc2ccc3c(c2)OCO3)CC1	inactive: 0.93%	–
O=C(CN1C(=O)c2ccccc2C1=O)Nc1ccc(-c2nc3ccccc3o2)cc1	–	inconclusive: 3.66 µM [rising, full curve, poor fit]
COc1ccccc1NC(=O)Nc1nc2ccc(S(N)(=O)=O)cc2s1	–	inconclusive: 10 µM [falling, partial curve]
CC(Oc1cc(F)ccc1[N+](=O)[O-])C(=O)N(C)CC(=O)Nc1ccccc1C(F)(F)F (stereo unspecified)	inactive: -4.74%	–
O=C(N/N=C/c1cccc(O)c1)c1ccc2c(c1)OCCO2	inconclusive: -15.9%	–
Cc1cccc(-n2c(SCC(N)=O)nc3c(c2=O)C2(CCCC2)Cc2ccccc2-3)c1	inconclusive: 27.2%	–
Clc1c(CSc2nc3ccccc3o2)nc2sccn12	–	inconclusive: 29.1 µM [falling, single point]
O=[N+]([O-])c1ccc2nn(Cc3ccccc3)cc2c1	inconclusive: -11.1%	–
Cc1cccc(/C(N)=N/OC(=O)c2ccncc2)c1	–	inconclusive: 35.5 µM [falling, partial curve, poor fit]
CS(=O)(=O)N1CCC(C(=O)NCc2ccc(F)cc2Cl)CC1	inconclusive: 8.44%	–
Cc1ccccc1NC(=O)N(C(C)C)C(C)C	inconclusive: -14.3%	–
CCc1ccc(Nc2n[n+](-c3ccccc3)c(-c3c(Cl)cccc3Cl)s2)cc1	–	inconclusive: 3.98 µM [rising, single point]
Cc1ccc(S(=O)(=O)N(Cc2ccccc2)Cc2ccco2)cc1	inconclusive: 3.76%	–

Compound	activity change, negative = inhibition	Potency
O=C(NC12CC3CC(CC(C3)C1)C2)c1ccc(-c2cccc(Cl)c2)o1	inconclusive: 3.85%	–
CCOc1ccc(-c2ccc3nnc(SCC(=O)NCC4CCCO4)n3n2)cc1 (stereo unspecified)	inactive: 1.4%	–
CN(C)c1ccc(-n2cccc2/C=C2/SC(=Nc3ccc(F)cc3)NC2=O)cc1	–	inconclusive: 17.8 µM [falling, partial curve, poor fit]
O=C(O)Cc1sc(N/N=C\c2ccccc2)nc1-c1ccccc1	inconclusive: -2.95%	–
Cc1[nH]nc2c1C(c1ccsc1)C(C#N)=C(N)O2 (stereo unspecified)	inconclusive: 25.4%	–
COc1ccc(CCNS(=O)(=O)c2ccc3c(c2)CCCC3)cc1OC	–	inconclusive: 29.1 µM [falling, partial curve, poor fit]
O=C(c1ccncc1)N1N=C(c2ccc(Br)cc2)CC1c1ccccc1O (stereo unspecified)	–	inconclusive: 35.5 µM [rising, single point]
S=C(Nc1ccccc1Cl)N(Cc1ccccc1)Cc1cccnc1	inactive: -3.34%	–
Cc1ccc(Cl)cc1NC(=O)COC(=O)CC1CC2CCC1C2 (stereo unspecified)	inconclusive: -4.38%	–
CC(=O)N(C)c1cccc([N+](=O)[O-])c1	inactive: 1.09%	–
CCN(CC)CCCNC(=O)CSc1nc(-c2ccc(OC)cc2)cc(C(F)(F)F)n1	inactive: -14.5%	–
CC(=O)c1ccc(NC(=O)CN2C(=O)NC(C)(c3ccc4c(c3)OCCO4)C2=O)cc1 (stereo unspecified)	inconclusive: 2.27%	–
CCSc1ncccc1-c1nc2ccccc2[nH]1	–	inconclusive: 2.31 µM [falling, partial curve]
Oc1c(C(c2ccccc2Cl)N2CCN(Cc3ccccc3)CC2)sc2nc(-c3ccco3)nn12 (stereo unspecified)	–	inconclusive: 2 µM [rising, partial curve, poor fit]
O=C(NCCCN1CCOCC1)C1CCN(S(=O)(=O)c2ccccc2)CC1	inconclusive: 7.53%	–
Cc1cc(Br)ccc1NC(=O)CNC(=O)Cn1ncc(Cl)c(Cl)c1=O	inactive: 6.71%	–
COc1cc2c(cc1OC)C1O[C@](CCCCN3C(=O)c4ccccc4C3=O)(C2)OC2=C1C(=O)c1ccccc1C2=O	–	inconclusive: 1.41 µM [rising, partial curve]
O=C(NCC1CCCO1)c1c(O)c2c([nH]c1=O)CCCC2 (stereo unspecified)	inconclusive: 11.7%	–
Cc1ccc2nc(N/N=C/c3ccccc3F)nc(-c3ccccc3)c2c1	inconclusive: 5.94%	–
CC(=O)Nc1ccc(S(=O)(=O)N(C)CC(=O)OC(C)C(=O)N(C)C2CCCCC2)cc1 (stereo unspecified)	–	inconclusive: 0.316 µM [rising, full curve, poor fit]
Oc1ccc(NCc2cccs2)cc1	inactive: -6.43%	–

Compound	activity change, negative = inhibition	Potency
COc1ccccc1CNC(=O)CCNC(=O)C1CCN(S(=O)(=O)c2ccccc2)CC1	inactive: -0.606%	–
COC(=O)c1c(N)c(C#N)c2n1CCCCC2	inactive: -0.245%	–
CC(C)N(C(=O)Cn1cnc2cc([N+](=O)[O-])ccc2c1=O)C(C)C	inconclusive: -23%	–
COc1ccc(OC)c(-c2cc(C(=O)Nc3sc4c(c3C#N)CCC(C)C4)c3ccccc3n2)c1 (stereo unspecified)	inactive: -6.59%	–
Cc1ccc(CNC(=O)c2ccc(N3CCC4(CC3)CC(c3cccc(Br)c3)=NO4)c(NC(=O)c3ccc(Br)cc3)c2)cc1	inactive: 2.19%	–
CCC(C(=O)NCCc1ccco1)n1nc(C)c2c(C)n(-c3ccccc3)nc2c1=O (stereo unspecified)	inactive: -16.3%	–
COCCn1c(=S)[nH]c2ccccc21	inactive: -17.9%	–
Cc1cccc(-n2c(C)c(-c3ccccc3)[nH]c2=S)c1	inactive: 19.6%	–
CC(=O)c1cc(-c2ccccc2)n(CC(=O)NCCc2ccc(C)cc2)c1C	–	inconclusive: 31.6 µM [rising, single point]
Cc1cccc(C2NC(=O)c3ccccc3O2)c1 (stereo unspecified)	inactive: 2.36%	–
N/C(=N\OC(=O)c1cccs1)c1cccc([N+](=O)[O-])c1	inconclusive: 5.25%	–
COc1ccc(NC(=O)C2C(c3ccccc3)C2(Cl)Cl)c(OC)c1 (stereo unspecified)	inconclusive: 1.45%	–
CC(=O)Nc1cccc(Nc2nc(-c3ccccc3)nc3ccccc23)c1	inconclusive: 0.509%	–
COc1cc(OC)c(NC(=O)C2CCCN2C(=O)OCc2ccccc2)cc1Cl (stereo unspecified)	inconclusive: 2.44%	–
O=[N+]([O-])c1ccc(N2CCN(CC(O)COc3ccccc3)CC2)cc1 (stereo unspecified)	inconclusive: -10.1%	–
CCOCc1c(C(=O)Nc2ccc3nc(N4CCOCC4)sc3c2)oc2ccccc12	–	inconclusive: 18.4 µM [falling, partial curve, poor fit]
CN(C)S(=O)(=O)c1cccc(C(=O)OCC(=O)c2ccc3c(c2)NC(=O)CO3)c1	–	inconclusive: 35.5 µM [falling, single point]
CCOc1ccc(C(=O)Nc2cccc(C(=O)O)c2C)cc1Cl	–	inconclusive: 18.4 µM [falling, partial curve]
Cc1ccc(S(=O)(=O)/N=C(\N)Nc2nc(C)c3cc(C)c(C)cc3n2)cc1	inactive: 2.48%	–
Cc1ccc(Cn2nnc3c(=O)[nH]c(C4CCN(S(=O)(=O)c5ccccc5)CC4)nc32)cc1	inconclusive: 0.722%	–
Cc1ccccc1Oc1cc(-n2ncc(Cl)c(Cl)c2=O)ncn1	inconclusive: -6.77%	–

Compound	activity change, negative = inhibition	Potency
Cn1c(=O)n(C)c2cc([N+](=O)[O-])c(N3CCN(C(=O)c4ccc(Cl)cc4)CC3)cc21	inconclusive: 3.56%	–
O=C(CNC(=O)c1cccc(Br)c1)NCCc1nc2ccccc2[nH]1	inactive: -11.5%	–
Cc1ccc(OCC(=O)O/N=C(\N)Cc2ccc(Cl)cc2)cc1	inconclusive: 6.73%	–
COc1ccc(OC)c(C2=NOC(C(=O)Nc3cccnc3)C2)c1 (stereo unspecified)	inconclusive: -9.35%	–
CCOC(=O)CN1NC2(CCCCC2)NC1=S	inactive: 7.79%	–
CC(=O)Nc1ccc(-c2nc3ccccc3o2)cc1	–	inconclusive: 22.4 µM [falling, single point]
CCc1ccccc1OCC(=O)Nc1cccc(S(=O)(=O)NC2=NCCC2)c1	–	inconclusive: 10.3 µM [falling, partial curve, poor fit]
CCc1ccc(OCCNC(=O)c2ccc(S(=O)(=O)N(C)C)cc2)cc1	inconclusive: -16.8%	–
COc1cccc(NC(=O)Nc2ccc3nc(N4CCN(C)CC4)cc(C)c3c2)c1	inactive: -0.0447%	–
O=C(O)CC1(CC(=O)Nc2cc3ccccc3cn2)CCCCC1	–	inconclusive: 20 µM [falling, partial curve]
O=C(Oc1c(CN2CCOCC2)cc(Cl)c2cccnc12)c1ccc(F)cc1	–	inconclusive: 1.3 µM [falling, full curve, poor fit]
COc1cccc(C(=O)Nc2c(C)nn(-c3ccccc3)c2C)c1	inconclusive: 2.51%	–
Cc1ccccc1OCC(=O)NCCC1=CCCCC1	inactive: 5.74%	–
COc1ccccc1C(=O)NNC(=O)c1ccc(F)cc1	–	inconclusive: 4.61 µM [falling, partial curve]
CN1CCN(C(=O)c2ccc3c(c2)N(Cc2ccc(Cl)cc2)C(=O)c2ccccc2S3=O)CC1 (stereo unspecified)	inconclusive: -3.1%	–
COc1ccccc1/C=C(/C#N)C(=O)O	inconclusive: 10.4%	–
CCN(CC)CCNC(=O)c1ccc(NC(=O)c2ccc(C(=O)c3ccccc3)cc2)cc1	inconclusive: 1.54%	–
CCCCOc1ccccc1C1CC(=O)NC2=C1C(=O)CCC2 (stereo unspecified)	–	inconclusive: 10 µM [falling, partial curve, poor fit]

Five entries picked at random from those above, as already listed:
Compound	activity change, negative = inhibition	Potency
N/C(=N\OC(=O)c1cccs1)c1cccc([N+](=O)[O-])c1	inconclusive: 5.25%	–
S=C(Nc1ccccc1Cl)N(Cc1ccccc1)Cc1cccnc1	inactive: -3.34%	–
COc1ccccc1C(=O)NNC(=O)c1ccc(F)cc1	–	inconclusive: 4.61 µM [falling, partial curve]
O=C(NC12CC3CC(CC(C3)C1)C2)c1ccc(-c2cccc(Cl)c2)o1	inconclusive: 3.85%	–
O=C(c1ccncc1)N1N=C(c2ccc(Br)cc2)CC1c1ccccc1O (stereo unspecified)	–	inconclusive: 35.5 µM [rising, single point]
